The list shows a part of the results. Shown are side measurements of this screen, not its main read-out; they come without a call. The list favours compounds with an active or inconclusive main result.

This passage reports normalized cell count results from PubChem BioAssay AID1273 (Columbia University Molecular Screening Center, 2008).

A short description of the assay: inhibitors of insulin promoter-driven GFP, primary screen, imaging, TRM-6 cells (human fetal islet line), eGFP reporter, cell count (AID 1273;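 also: cells exposed to compound for 48 h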). The conditions noted are these: measured here: cell count, toxicity, at 2 µM, reporter expression induced with tamoxifen.
Molecule `Cc1ccc(NC2=NC(c3ccccc3)n3c(nc(C)cc3=O)N2)cc1` (stereo not drawn) registered a normalized cell count of 110%. For the molecule `Cc1nn2c(C(F)(F)F)cc(-c3ccc(Cl)cc3)nc2c1C(=O)N1CCOCC1`, the normalized cell count came out at 71.8%. With `C[C@@H]1CC[C@@]2(O[C@H](CCO)C[C@@H](O)[C@@H]2O)O1` the figure was 92.5%; with `CCOC(=O)c1sc(NC(=O)c2ccccc2F)c(C(N)=O)c1C`, 187%; with `CC1(C)CC(NC(=O)CC2CCCCC2)CC(C)(C)N1`, 117%. In turn, `CCOC(=O)CCc1c(C)nc2cc(-c3ccccc3OC)[nH]n2c1=O` showed a normalized cell count of 64.5%. The molecule `CCOC(=O)CC(=O)CSc1ncnc2c1cnn2-c1ccccc1` displayed a normalized cell count of 0.86%. In turn, `CCOC(=O)Cc1csc(NC(=O)CSc2nc(N)c3c(C)c(C)sc3n2)n1` came in with a normalized cell count of 20.6%. With `Cc1ccc(NC(=O)CN(C)S(=O)(=O)c2cccs2)cc1F` the figure was 64.6%; with `CC(C)(C)NC(=O)c1cccc(NC(=O)c2ccc(NC(=O)c3ccco3)cc2)c1`, 137%. The molecule `CCOc1cc(C)c(C(C)C)cc1S(=O)(=O)n1ccc(C)n1` showed a normalized cell count of 145%. The molecule `CCOC(=O)C1CCCN(c2c(N3CCN(c4ccccn4)CC3)c(=O)c2=O)C1` (stereo not drawn) yielded a normalized cell count of 56.7%.

Regarding `O=C(NC1CCCC1)C1c2ccccc2C(=O)N1CCCN1CCOCC1` (stereo not drawn), the normalized cell count turned out to be 114%. As for `CCCc1nc2ccccc2n2cc3c(=O)n(C)c(=O)n(C)c3c12`, the normalized cell count worked out at 101%. Molecule `COc1ccc(NC(=O)CSc2ccc(-c3cccs3)nn2)c(OC)c1` showed a normalized cell count of 181%. `COc1ccc2[nH]c3c(NCCN4CCCCC4)ncnc3c2c1` gave a normalized cell count of 39.8%. `C=CCn1c(SCc2csc(C)n2)nc2sc3c(c2c1=O)CCCC3`: the normalized cell count turned out to be 74.6%. For `Cc1cccc(C(C)(C)C)c1OCCn1ccnc1` the value was 40.7%. For `CCCc1cc(C(F)(F)F)c(C#N)c(=O)[nH]1` the value was 59.9%; for `CCOc1ccccc1NC(=O)c1cc(S(=O)(=O)N2CCC3(CC2)OCCO3)ccc1F`, 87.2%.

The molecule `CCOC(=O)c1sc2nc(C)[nH]c(=S)c2c1C` displayed a normalized cell count of 123%.

As to `COc1cccc(C(=O)Nn2cnnc2)c1`, the normalized cell count was 167%. With `CCc1cccc(C)c1NC(=S)NCc1ccc2[nH]c(C)cc2c1`, the normalized cell count is 85%. With `CC(C)(C)NC(=O)C(c1ccco1)N(C(=O)c1ccc(CN2CCOCC2)o1)c1ccccc1` (stereo not drawn) the figure was 127%. For the molecule `COc1ccc(C(=O)Nc2c(N)nc(SCC(=O)N3CCCCCC3)[nH]c2=O)cc1OC`, the normalized cell count was found to be 179%. `O=C(Nc1cc(Cl)cc(Cl)c1)c1ccc(Cn2c(=O)[nH]c3ccsc3c2=O)cc1` yielded a normalized cell count of 119%. For `CCCCCCCCCOC(=O)C(CC(=O)O)N1CCOCC1` (stereo not drawn) the value was 36.2%. As for `O=C(Cn1nnc(-c2cccs2)n1)N1c2ccccc2Sc2ccc(C(F)(F)F)cc21`, the normalized cell count was found to be 179%. For `CCCc1cc(NCCCCO)n2c(nc3ccccc32)c1C#N` the value was 43.7%; for `Cc1ccc2c(Cl)c(C)c(N3CCCCC3)nc2n1`, 121%. Turning to `CCN(CC)c1nc(OCCNC(=O)Nc2ccccc2)nc(N(CC)CC)n1`, the normalized cell count came out at 17.1%. As for `Cc1ccc(S(=O)(=O)N(C)C)cc1NC(=O)COC(=O)/C(=C/c1ccc(F)cc1)c1cccs1`, the normalized cell count was found to be 106%. For `COCCNC(=O)c1cc(-c2ccc(Cl)c(Cl)c2)on1`, the normalized cell count was 97.1%. For `O=c1[nH]c(-c2cccs2)nc2ccccc12` the value was 210%; for `Cc1cc(N)n2ncc(-c3cccc(Br)c3)c2n1`, 204%. With `Fc1ccc(/C=N/Nc2ncnc3nc[nH]c23)cc1F` the figure was 105%; with `O=C(NCc1ccco1)C1CCC(N2C(=O)c3ccccc3C2=O)CC1` (stereo not drawn), 130%; with `Cc1ccc(NC(=S)c2nc3ccccc3[nH]2)cc1`, 133%. `O=C(N/N=C/C=C/c1ccco1)c1cccnc1` showed a normalized cell count of 10.2%. With `Cc1cccc(-c2nnc(N)s2)c1` the figure was 38.8%. For `O=C(Nc1ccc2nc(-c3ccco3)[nH]c2c1)c1ccco1` the value was 102%. With `Cc1ccc(NC(=O)CNc2ccc(OC(C)C)cc2)c(C)c1`, the normalized cell count came to 96.4%. In turn, `CCOc1ccc(-n2ccnc2SCC(=O)Nc2nnc(CC)s2)cc1` returned a normalized cell count of 113%. `O=C1COc2ccc(C(=O)CSc3nnc(Cc4cccs4)n3-c3ccccc3)cc2N1` displayed a normalized cell count of 65.8%. In the case of `COC(=O)/C(=C/N(C)C)C(=O)N1CCN(c2ccc(Cl)c(Cl)c2)CC1`, the normalized cell count worked out at 76.2%. With `CC(C)(CSc1nncn1N)NS(=O)(=O)c1ccc(Cl)cc1` the figure was 56.7%; with `CCN(CC)c1ccc(/C=N/NC(=S)NCc2ccco2)cc1`, 0.41%. With `Cc1cc(N)n2ncc(-c3ccccc3)c2n1` the figure was 147%; with `Cc1cc(C)cc(OCCCC(=O)O)c1`, 97.3%; with `Cc1nc(NC(=O)C2CC2)sc1C(=O)N(C)C`, 125%. With `CC(=O)Nc1ccc(NC(=O)C(Cc2ccccc2)NC(=O)C2CCCCC2)cc1` (stereo not drawn) the figure was 69.4%.

Regarding `O=C(NC1CCCCC1)C(c1ccncc1)N(CC1CCCO1)C(=O)C(F)(F)F` (stereo not drawn), the normalized cell count was 113%. Molecule `COc1cccc2c1OC1(C)CC2/C(=C(\C)O)C(=O)N1` (stereo not drawn) showed a normalized cell count of 77.6%. For `CCN(C=NC1=NN(c2cccc(C(F)(F)F)c2)CC1)CC` the value was 91.5%; for `CC(=O)Nc1c(C(=O)c2ccccc2)oc2ccccc12`, 34.8%; for `CCCCCn1c(=O)[nH]c2cc(C(=O)NCc3ccccn3)ccc2c1=O`, 86%. As to `CC(=O)c1c(C)nc2ccccc2c1N`, the normalized cell count turned out to be 93.6%. With `CCc1nc(NC(C)C)c2oc3ccccc3c2n1` the figure was 136%.
